# Screen size: about 350,000 compounds; about 220 (0.063%) were called active. The inconclusive results got no clear call from the source; some entries with a clear call stand among them for comparison. The call rests on the fitted dose curve; in most records, active means well fitted activation curve with a large enough effect; inconclusive means small, poorly fitted or top-dose-only effect; inactive means no such curve, though single readings can be large or run the other way. Potencies of inconclusive entries are doubtful fits and often do not repeat.
# Experiment: qHTS for Activators of Integrin-Mediated Alleviation for Muscular Dystrophy; further: nearly all actives have a fitted effect of over 60% in size;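 on activation: 100% = response of the positive control SU9516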
# Details: alpha7betagal myoblasts, beta-gal FDG fluorescence, 48 h; activation: at 38.3 µM (top of the series)
# Summary of the method: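 alpha7betagal+/- myoblasts (passage 13, 250/well) treated 48 h at 37C with compounds at 1:260 dilution of DMSO stock. Lysed, then beta-galactosidase activity read as FDG fluorescence (ex 480/em 540) after 30 min, with pre-read for autofluorescence.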
# Potency means the concentration at half of the fitted maximal effect.
Structure (SMILES),activation,Potency
NC(=NCCc1ccc(Cl)cc1)NS(=O)(=O)c1ccc(F)cc1,inactive: 24.5%,
O=C1CSC(c2ccc([N+](=O)[O-])cc2)N1c1ccc(O)cc1 (stereo unspecified),,"inconclusive: 5.01 µM [activator, single point]"
Cc1ccc(/C=C/S(=O)(=O)NCCC(=O)NCc2ccc(F)cc2)cc1,,"inconclusive: 2.24 µM [activator, partial curve, poor fit]"
COc1ccc(OC)c(NC(=O)c2oc3c(c2C)C(O)CC(C)(C)C3)c1 (stereo unspecified),inactive: -28.9%,
COc1cccc(CNC(=O)Cn2ccc3cc(S(=O)(=O)N4CCCCCC4)ccc32)c1OC,,"inconclusive: 22.4 µM [activator, single point]"
CC(NC(=O)CCNS(=O)(=O)c1ccccc1)c1ccccc1 (stereo unspecified),,"inconclusive: 2.51 µM [activator, single point]"
C/C(=N\NC(=O)CN(c1ccccc1Br)S(C)(=O)=O)c1ccc2c(c1)OCCO2,inconclusive: -24.7% [activator],
Cc1ccc(NC(=O)c2ccccc2)cc1,inactive: 17.3%,
CCOC(=O)c1cnn2c(N)c(C#N)cnc12,,"inconclusive: 2.82 µM [activator, single point]"
O=C(O)c1ccc2c(c1)C(=O)N(c1cc([N+](=O)[O-])ccn1)C2=O,,"inconclusive: 28.2 µM [activator, single point]"
Cc1ccc(NC(=O)CN(C)C(=O)c2cccc(Br)c2)cc1,,"inconclusive: 5.01 µM [activator, single point]"
CC(C)c1nnc(NC(=O)CCC(=O)NCc2ccccc2Cl)s1,,"inconclusive: 25.1 µM [activator, partial curve, poor fit]"
CCC(=O)N1N=C(c2ccc(Cl)cc2)CC1c1ccco1 (stereo unspecified),inactive: 13%,
C=C1c2cccc(O)c2C(O)=C2C(=O)[C@]3(O)C(O)=C(C(N)=O)C(=O)[C@@H](N(C)C)[C@@H]3[C@@H](O)[C@H]12,inactive: 1.29%,
Cc1cc(C(=O)COC(=O)c2ccccc2O)c(C)n1CC1CCCO1 (stereo unspecified),inactive: -38.6%,
CCCCNC(=O)CCC(=O)Nc1ccc2nc(N3CCOCC3)cc(C)c2c1,inactive: -13.5%,
Cc1cccc(Sc2nc(-c3ccccc3)ccc2C#N)c1,,"inconclusive: 3.98 µM [activator, partial curve]"
CNC(=S)N/N=C(\C)c1ccc(-n2ccnc2)cc1,,"inconclusive: 1.58 µM [activator, partial curve, poor fit]"
CCC(=NCCc1c(C)[nH]c2ccc(C)cc12)C1=C(O)CC(c2ccccc2)CC1=O (stereo unspecified),,"inconclusive: 10 µM [activator, partial curve, poor fit]"
CC(C)N1C(=O)CCC1C(=O)N1CCN(c2ccc(F)cc2)CC1 (stereo unspecified),,"inconclusive: 1.78 µM [activator, full curve, poor fit]"
COc1cc(/C=N/NC(=O)c2cc(-c3cccn3C)n[nH]2)cc(OC)c1OC,inactive: 21.7%,
Nc1ccc2c(c1)C(=O)N(CCCC(=O)O)C2=O,inactive: -11.9%,
CCOc1ccc2nc3cc(N=Nc4ccc(N)nc4N)ccc3c(N)c2c1,inactive: -35%,
O=C(Nc1ccnn1C1CCN(Cc2ccn[nH]2)CC1)c1ccccc1,,"inconclusive: 0.447 µM [activator, partial curve, poor fit]"

# Some of the entries above in another layout:
Structure (SMILES)	activation	Potency
COc1ccc(OC)c(NC(=O)c2oc3c(c2C)C(O)CC(C)(C)C3)c1 (stereo unspecified)	inactive: -28.9%	
COc1cccc(CNC(=O)Cn2ccc3cc(S(=O)(=O)N4CCCCCC4)ccc32)c1OC		inconclusive: 22.4 µM [activator, single point]
CC(NC(=O)CCNS(=O)(=O)c1ccccc1)c1ccccc1 (stereo unspecified)		inconclusive: 2.51 µM [activator, single point]
C/C(=N\NC(=O)CN(c1ccccc1Br)S(C)(=O)=O)c1ccc2c(c1)OCCO2	inconclusive: -24.7% [activator]	
Cc1ccc(NC(=O)c2ccccc2)cc1	inactive: 17.3%	
CCOC(=O)c1cnn2c(N)c(C#N)cnc12		inconclusive: 2.82 µM [activator, single point]

# Remaining list, next part:

Structure (SMILES),activation,Potency
Nc1nccc(NCCSCc2ccccc2)n1,,"inconclusive: 5.01 µM [activator, single point]"
COc1ccc(CC(=O)NNC(=O)c2ccco2)cc1,,"inconclusive: 15.8 µM [activator, single point]"
Cc1ccc(NC(=O)CN(C)C(=O)C(Sc2ccccc2)c2ccccc2)cc1 (stereo unspecified),inactive: -19%,
CN(C)S(=O)(=O)c1ccc2nnn(OCC(=O)NC3CCS(=O)(=O)C3)c2c1 (stereo unspecified),,"inconclusive: 5.01 µM [activator, partial curve, poor fit]"
O=C(CN1CCN(S(=O)(=O)c2ccc(F)cc2)CC1)Nc1cccc(C(F)(F)F)c1,inactive: -26.7%,
O=C(NNC(=O)C1CCN(c2ncccn2)CC1)c1ccccc1,,"inconclusive: 3.16 µM [activator, partial curve, poor fit]"
Cc1cc(C)cc(N(C(=O)c2ccc(Br)o2)C2C=CS(=O)(=O)C2)c1 (stereo unspecified),inactive: 26.2%,
CCc1cc(=O)oc2cc(OCC(=O)NCCCn3ccnc3)ccc12,,"inconclusive: 14.1 µM [activator, partial curve, poor fit]"
CCCn1nnc(NC(=S)NC(=O)c2ccc(-c3ccc(Br)cc3)o2)n1,,"inconclusive: 5.01 µM [activator, single point]"
Cc1ccccc1SCC(=O)N/N=C/c1ccc(F)cc1,,"inconclusive: 5.01 µM [activator, single point]"
NC(=S)N/N=C\c1ccc(-c2cccc(Cl)c2Cl)o1,inactive: 21.6%,
N#Cc1ccccc1S(=O)(=O)N1CCN(C(=O)C2COc3ccccc3O2)CC1 (stereo unspecified),,"inconclusive: 28.2 µM [activator, single point]"
Cc1ccccc1-n1c(SCC(=O)Nc2cccc3ccccc23)nc(O)cc1=O,,"inconclusive: 10 µM [activator, partial curve, poor fit]"
Cc1ncc(CO)c(/C=N/NC(=S)Nc2ccc(Cl)c(Cl)c2)c1O,inactive: -18%,
O=S(Cc1ccc(Br)cc1)Cc1nnc(SCc2ccc(Cl)cc2)n1-c1ccccc1 (stereo unspecified),,"inconclusive: 3.16 µM [activator, partial curve, poor fit]"
COCCCNC(=O)C1CCCN(S(=O)(=O)c2cccc3nsnc23)C1 (stereo unspecified),,"inconclusive: 28.2 µM [activator, single point]"
Cc1cc(C(=O)OC(C)C(=O)NC2CCCCC2C)c2ccccc2n1 (stereo unspecified),inactive: -9.61%,
N#CC1=C(N)Oc2cc(O)ccc2C1c1cccnc1 (stereo unspecified),inactive: -28.6%,
CC(=O)O/N=C/c1c(N2CCOCC2)n(C)c2ccccc12,inactive: -58.2%,
COC(=O)CNC(=O)CSc1nnc2cc(C)c3ccccc3n12,,"inconclusive: 17.8 µM [activator, single point]"
CN(Cc1cnccn1)C(=O)CC1C(=O)NCCN1Cc1cccc(F)c1 (stereo unspecified),,"inconclusive: 14.1 µM [activator, single point]"
CC1CCCC(NC(=O)CCC(=O)NCc2ccccc2)C1C (stereo unspecified),,"inconclusive: 28.2 µM [activator, single point]"
N=C(N)SCc1ccc(Cl)cc1Cl,inactive: -29.1%,
Cc1nc(N2CCCCC2)c2c(C)c(C(=O)Nc3ccc4c(c3)OCCO4)sc2n1,,"inconclusive: 2.24 µM [activator, full curve, poor fit]"

Structure (SMILES),activation,Potency
OC(c1nc2ccc(F)cc2[nH]1)C(O)c1nc2ccc(F)cc2[nH]1 (stereo unspecified),,"inconclusive: 1 µM [activator, full curve, poor fit]"
Cc1ccn2cc(C(=O)NCc3ccco3)nc2c1,,"inconclusive: 11.2 µM [activator, single point]"
O=C(NCCN1CCCCC1)Nc1ccccc1F,,"inconclusive: 8.91 µM [activator, partial curve, poor fit]"
CC(C)n1cc(-c2ccc(Cl)cc2)cc(C#N)c1=O,inactive: 22.8%,
CCc1ccc(-c2cc(C)no2)cc1S(=O)(=O)Nc1cc(C)ccn1,,"inconclusive: 5.01 µM [activator, single point]"
CCOC(=O)c1ccc2nc(Nc3nc4ccc(F)cc4s3)sc2c1,inactive: 15.9%,
CCOc1cc(NC(=O)C2CCCO2)c(OCC)cc1NC(C)=O (stereo unspecified),,"inconclusive: 0.398 µM [activator, full curve, poor fit]"
O=C(CSc1ccccn1)N/N=C/c1ccccc1[N+](=O)[O-],inactive: -3.62%,
Cc1nc(N/N=C/c2ccc(O)cc2)c2cnn(-c3ccccc3)c2n1,,"inconclusive: 0.501 µM [activator, partial curve, poor fit]"
CCn1cc(CCC(=O)NC(C)c2ccccc2)c2ccccc21 (stereo unspecified),,"inconclusive: 5.01 µM [activator, single point]"
O=C(Nc1nc(-c2cccs2)cs1)c1ccco1,,"inconclusive: 6.31 µM [activator, single point]"
Nc1ncnc2c(C3OC(CO)C(O)C3O)scc12 (stereo unspecified),inconclusive: -56.7% [activator],
COc1cccc(N2CCN(C(=O)CC(C)(C)CC3=NS(=O)(=O)c4ccccc4N3)CC2)c1,,"inconclusive: 0.447 µM [activator, partial curve, poor fit]"
CCOC(=O)C1(Cc2cccc(Cl)c2)CCCN(C(=O)CCNC(C)=O)C1 (stereo unspecified),,"inconclusive: 28.2 µM [activator, single point]"
CN(CCc1ccccc1)C(=O)c1ccc(NC(=O)Cc2cccc(NC(=O)C3CCN(C(=O)c4ccccc4)CC3)c2)cc1,inactive: -11.3%,
CCOC(=O)C1CCCN(CCC(=O)Nc2ccccc2C)C1 (stereo unspecified),,"inconclusive: 0.501 µM [activator, full curve, poor fit]"
C(=C\c1ccccc1)/CN1CCN(Cc2ccc3c(c2)OCO3)CC1,inactive: -29.6%,
CCOC(=O)c1nnn(-c2ccc([N+](=O)[O-])cc2)c1C,,"inconclusive: 5.01 µM [activator, single point]"
Cc1ccc(C)c(NC(=S)Nc2cccc3cnccc23)c1,,"inconclusive: 10 µM [activator, single point]"
CN=c1scc(C)n1/N=C/c1ccc(O)cc1,inactive: -33%,
Cc1ccc(SCc2c(C(=O)N/N=C/c3ccncc3)nnn2-c2nonc2N)cc1,,"inconclusive: 2.51 µM [activator, single point]"
Cn1c(=O)c2c(nc(Sc3ncnn3CC(=O)NC3CCCCC3)n2C)n(C)c1=O,,active: 11.2 µM
COc1cc2c(cc1OC)CN(Cc1cc(=O)n3c(-c4ccccc4)csc3n1)CC2,,"inconclusive: 12.6 µM [activator, single point]"

# — PubChem BioAssay AID624291 (National Center for Advancing Translational Sciences (NCATS), 2012)
